This note sets out measurements from PubChem BioAssay AID2685 (National Center for Advancing Translational Sciences (NCATS), 2010).

Some of the results follow. Further columns of the screen follow, without active or inactive calls. Compounds called inactive in the main read-out are mostly missing here. Words in brackets tell the shape of the fitted curve; partial curves, single points and poor fits give uncertain potencies.

This assay can be described thus: qHTS Assay for Lipid Storage Modulators in Drosophila S3 Cells.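 For cell number change: cells counted by Cell Tracker Red CMTPX staining in the red channel.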 Particulars: BODIPY lipid droplet fluorescence, 18-24 h; for cell number change: measured here: cell count max response, cells fed with added oleic acid. An outline of the steps: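 Drosophila S3 cells loaded with oleic acid (400 uM, as added) and compounds at several concentrations; lipid droplets imaged by 488-nm laser-scanning cytometry, 500–530 nm intensity and object ratio to cell channel. Percent activity normalized to 20 uM Triacsin C.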
For orientation: Quantitative high-throughput screening tests each substance at several concentrations.

Setting [1] is: measured here: lipid fluorescence (Fed channel) AC50, cells fed with added oleic acid.
Setting [2] is: measured here: cell number channel AC50, cells fed with added oleic acid.

The AC50 is the concentration giving half of the maximal activity seen. A lower AC50 goes with activity at low concentration. `Nn1cnnc1SCC(=O)Nc1ccc2c(c1)OCO2`: under setting [1], the AC50 is 20600 nM [rising, single point].

For the compound `COc1cc([N+](=O)[O-])cc(/C=N/NC(=O)C(C)Nc2cccc3ccccc23)c1O` (stereo not drawn), the cell number change came to 0.677%. Also, the AC50 under setting [1] was 18400 nM [rising, single point].

In the case of `C#CCOCCOCCOCCNc1nc(N2CCN(C(=O)Cn3cc(CCCCN)nn3)CC2)nc(N2CCN(C(=O)[C@H](CCCCN)n3cc(CCC(=O)O)nn3)CC2)n1`, the cell number change is -7.98%. Further, the AC50 under setting [1] was 146 nM [falling, full curve, poor fit].

Consider `CCCCN(C(=O)c1ccc(NC(=O)C(C)C)cc1)c1ccccc1`, for which the cell number change was -16.2%.

As for `Cc1nc(N2CCOCC2)c2oc3ccccc3c2n1`, the cell number change was -13.1%. Moreover, under setting [1], the AC50 was 20600 nM [falling, single point].

As to `COc1ccc(OC)c(/C=N/NC(=O)CN2CCSCC2)c1`, the cell number change is -2.89%. Moreover, under setting [1], the concentration at half-maximal activity (AC50) is 25900 nM [rising, single point].

Regarding `O=C(C1=C(O)C(=O)N(c2ncccn2)C1c1ccc(Cl)c(Cl)c1)c1ccco1` (stereo not drawn), the cell number change is -2.33%.

With `CCOC(=O)CSc1nnc(-c2ccccc2NC(=O)c2ccccc2)o1`, the cell number change worked out at 17.3%. Besides, under setting [1], the half-maximal activity concentration (AC50) was 29100 nM [rising, single point].

On to `CS(=O)(=O)N1CCN(c2ccc(NC(=O)COc3ccccc3)cc2)CC1`, for which the cell number change is -30.1%. The AC50 under setting [2] is 116 nM [falling, full curve, poor fit]. Besides, the half-maximal activity concentration (AC50) under setting [1] is 461 nM [falling, full curve, poor fit].

Consider `NC(=O)c1ccc(NC(=O)CN2CCN(S(=O)(=O)c3ccc4c(c3)OCCO4)CC2)cc1`, for which the cell number change is -25%. The AC50 under setting [1] is 32600 nM [falling, single point].

For `Cc1ccccc1OCC(=O)Nc1cnn(CCCC(=O)O)c1`, the cell number change is 19%. The AC50 under setting [1] was 1460 nM [rising, full curve, poor fit].

As for `COc1ccc2oc(=O)c(C(=O)Nc3ccccc3-c3ccccc3)cc2c1`, the half-maximal activity concentration (AC50) under setting [1] was 116 nM [rising, full curve, poor fit].

With `COc1cc2nc(CN(C)Cc3ccc(Cl)cc3)[nH]c(=O)c2cc1OC`, the cell number change was 83.5%. For the same compound, the AC50 under setting [2] was 23100 nM [rising, single point]. For the same compound, the AC50 under setting [1] is 4.61 nM [rising, full curve, poor fit].

Regarding `O=C(OCc1cccc([N+](=O)[O-])c1)c1cccnc1`, the cell number change was -32.5%. In addition, the concentration at half-maximal activity (AC50) under setting [2] was 32600 nM [falling, single point]. In addition, the half-maximal activity concentration (AC50) under setting [1] was 20600 nM [falling, single point].

For `Cc1cc(C)nc(SCCCNCc2ccc(Br)cc2)n1`, the cell number change is -5.67%. Besides, the concentration at half-maximal activity (AC50) under setting [1] was 29100 nM [falling, single point].

On to `O=c1cc(CN2CCN(S(=O)(=O)c3ccc4c(c3)OCCO4)CC2)c2ccc(O)cc2o1`, for which the cell number change stood at 11.5%. The AC50 under setting [2] was 130 nM [falling, full curve, poor fit].

For the compound `Cc1cccc(NC(=O)c2cc(S(=O)(=O)N(C)c3ccc(F)cc3)ccc2Cl)n1`, the cell number change was -50.5%. The half-maximal activity concentration (AC50) under setting [2] is 16400 nM [falling, partial curve, poor fit]. Further, the AC50 under setting [1] is 326 nM [falling, full curve, poor fit].

For `CC(C)C1N(c2ccccc2)C(N)=C(C#N)C1(C#N)C#N` (stereo not drawn), the cell number change is 84.1%. Also, the AC50 under setting [2] is 18400 nM [rising, single point]. Also, the AC50 under setting [1] is 18400 nM [rising, single point].

Consider `Cc1cc2cc(CNC(=O)Cc3ccc([N+](=O)[O-])cc3)ccc2[nH]1`, for which the cell number change came to 86.4%. Also, the AC50 under setting [2] is 29100 nM [rising, single point]. Moreover, under setting [1], the AC50 is 18400 nM [rising, single point].

Regarding `Cc1nc(N/N=C/c2ccc(Br)cc2)cc(N2CCOCC2)n1`, the cell number change is -6.32%. Besides, the AC50 under setting [1] was 517 nM [falling, single point].

As to `COc1ccc2nc3c(cc2c1)c(NC(=O)c1cccs1)nn3CC(C)C`, the cell number change is 17.9%. For the same compound, under setting [2], the half-maximal activity concentration (AC50) was 1030 nM [rising, single point]. In addition, the AC50 under setting [1] is 461 nM [rising, partial curve].

With `CC(C)CCNC(=O)C(c1ccco1)N(Cc1ccc(F)cc1)C(=O)c1snc(C(N)=O)c1N` (stereo not drawn), the cell number change was determined as 3.61%. Further, the AC50 under setting [2] was 731 nM [rising, partial curve, poor fit]. The half-maximal activity concentration (AC50) under setting [1] is 29100 nM [rising, single point].

For `CCOC(=O)C1CN(S(=O)(=O)c2ccc(Cl)cc2)c2cc(S(=O)(=O)CC)ccc2O1` (stereo not drawn), the cell number change is -33.1%. Under setting [2], the AC50 was 6510 nM [falling, single point].

As for `COCCNC(=S)NCCc1ccc(Cl)cc1Cl`, the cell number change stood at 8.61%. The AC50 under setting [2] was 731 nM [falling, full curve]. Moreover, under setting [1], the concentration at half-maximal activity (AC50) was 411 nM [falling, full curve].

As to `c1ccc(COc2nsnc2N2CCOCC2)cc1`, the concentration at half-maximal activity (AC50) under setting [1] was 651 nM [falling, single point].

Consider `CC(C)COC(=O)CCn1[nH]c(=O)c2ccccc2c1=O`, for which the cell number change was -18.4%. For the same compound, the AC50 under setting [2] is 326 nM [rising, full curve, poor fit]. Besides, under setting [1], the AC50 was 580 nM [falling, full curve, poor fit].

Turning to `N#C/C(=C\c1ccc[nH]1)C(=O)Nc1ccccc1F`, the cell number change was found to be 8.38%. For the same compound, the AC50 under setting [1] was 6510 nM [falling, single point].

On to `Cc1cccc(C)c1OCC(=O)NNC(=O)CCNC(=O)c1ccco1`, for which the AC50 under setting [1] was 2910 nM [rising, single point].

In the case of `O=C(N/N=C/c1ccco1)c1ccc(NC(=O)C2CCCCC2)cc1`, the cell number change is -21.2%. Also, the AC50 under setting [2] is 517 nM [falling, full curve, poor fit].

For `Cc1cccc2cc(CN(Cc3nnnn3Cc3ccccc3)C3CCCC3)c(=O)[nH]c12`, the AC50 under setting [1] is 1160 nM [rising, full curve].

`CC(=O)Nc1ccc(C(=O)COC(=O)C2CC2C)c(F)c1` (stereo not drawn): the cell number change came to 26.5%.

Take `COC(=O)c1cc(NC(=O)c2ccc(OC)cc2)c(=O)oc1C`: the cell number change is 2.39%.

For `COc1ccc(NC(=O)CSc2nnc(Cc3cccs3)n2C)cc1`, the cell number change worked out at 23.7%.

`CCC1(c2ccc(F)cc2)NC(=O)N(CC(=O)NCc2ccccc2Cl)C1=O` (stereo not drawn): the cell number change was determined as 19.8%. Also, under setting [1], the concentration at half-maximal activity (AC50) was 1840 nM [rising, full curve, poor fit].

For the compound `CN(CC(=O)Nc1cccc2ccccc12)C(=O)c1ccc(F)cc1F`, the cell number change was -14.5%. Further, the half-maximal activity concentration (AC50) under setting [1] was 16400 nM [rising, partial curve].

As for `CC(=C/c1ccccc1)/C=N/n1c(-c2ccco2)n[nH]c1=S`, the cell number change is -36.9%. For the same compound, under setting [2], the AC50 was 7310 nM [falling, partial curve, poor fit].

For the compound `CCN1CCN(c2nc3c(c(=O)[nH]c(=O)n3C)n2Cc2ccccc2)CC1`, the cell number change was 2.36%. Besides, the AC50 under setting [1] is 2310 nM [falling, full curve].

As for `CCN(C(=O)CSc1nnc(-c2ccco2)n1CC)c1c(N)n(Cc2ccccc2)c(=O)[nH]c1=O`, the cell number change stood at 3.35%.

On to `CCCCNC(=O)CN1C(=O)NC(Cc2ccccc2)(Cc2ccccc2)C1=O`, for which the cell number change is 6.45%.

As for `COc1ccc(OCC(=O)Nc2nc3c(s2)CCCC3)cc1`, the cell number change was -27.1%.

As for `COc1ccc(C2=NOC(Cn3nc(C(=O)NCc4ccc5c(c4)OCO5)cc3-c3ccccc3)C2)cc1` (stereo not drawn), the cell number change came to 28.5%. The AC50 under setting [1] was 580 nM [falling, full curve].

As to `O=C(NC1CCCCC1)C(c1ccccc1F)N(Cc1ccco1)C(=O)Cn1nnc2ccccc21` (stereo not drawn), the cell number change is -25.3%. Also, the AC50 under setting [1] was 5800 nM [falling, partial curve].

On to `CCCn1c(SCC(=O)Nc2sc(C)c(C)c2C(=O)OC)nc2c1c(=O)n(C)c(=O)n2C`, for which the cell number change was 4.14%. Besides, the AC50 under setting [1] was 2060 nM [rising, partial curve, poor fit].

For `Cc1ccc(COc2ccsc2C(=O)NN)cc1`, the cell number change was determined as 0.13%. Also, the AC50 under setting [2] was 6510 nM [rising, partial curve, poor fit]. Further, the AC50 under setting [1] was 6510 nM [rising, partial curve].

On to `CC(NC(=O)c1ccc2c(c1)OCO2)c1ccccc1` (stereo not drawn), for which the cell number change was 2.1%. Under setting [1], the concentration at half-maximal activity (AC50) was 4.11 nM [rising, partial curve, poor fit].

For `COc1cccc(NC(=O)c2ccc3c(O)c(S(=O)(=O)c4ccccc4)c(=O)[nH]c3c2)c1`, the cell number change is -0.989%.

Take `COc1ccccc1C(=O)N(Cc1ccccc1)c1ccc(C)cc1`: the cell number change came out at 20.8%. Also, the AC50 under setting [1] is 1640 nM [rising, partial curve].

As to `CCc1cc(C(=O)Cc2nc3ccccc3[nH]2)c(O)cc1O`, the cell number change is -6.51%. The AC50 under setting [1] was 206 nM [falling, partial curve, poor fit].

In the case of `CC(C)(C)NC(=O)C(OC(=O)Cn1nnc(-c2ccc(F)cc2)n1)c1ccncc1` (stereo not drawn), the cell number change came to 5.83%.

Consider `CC(C)(C)c1ccc(-c2cc(-c3ccccc3O)[nH]n2)cc1`, for which the cell number change was 4.73%.

As to `CN/C(=C/[N+](=O)[O-])NCCSCc1ccc(CN(C)C)o1`, the cell number change is -31.9%. Moreover, the AC50 under setting [2] is 4110 nM [falling, full curve, poor fit].

Turning to `O=C(CN1C(=O)NC2(CCc3ccccc32)C1=O)c1ccc(F)c(F)c1` (stereo not drawn), the cell number change came to 31.1%. Besides, under setting [2], the AC50 is 3660 nM [rising, full curve, poor fit].

On to `Cc1cccc(NC(=O)c2cc(S(=O)(=O)N3CCCCC3)c[nH]2)c1C`, for which the cell number change amounted to 10.2%. Also, the AC50 under setting [1] was 29100 nM [rising, single point].

With `CC1(C)CN2C(=S)N(c3ccccc3)C(c3ccccc3)N2C1` (stereo not drawn), the cell number change is -54%. The concentration at half-maximal activity (AC50) under setting [2] was 18400 nM [falling, single point].

As to `Nc1c(SCCC(=O)O)ccc2c1C(=O)c1ccccc1C2=O`, the cell number change was -66.7%. Further, the AC50 under setting [2] was 20600 nM [falling, partial curve, poor fit].

As to `O=C(NCC1CCCO1)C1CC(=O)N(C2CCCC2)C1` (stereo not drawn), the cell number change turned out to be 7.24%. Besides, the AC50 under setting [1] is 23100 nM [falling, partial curve].

Take `COc1cc(CN(C(=O)c2cc3ccccc3oc2=O)C2CCS(=O)(=O)C2)cc(OC)c1OC` (stereo not drawn): the cell number change stood at 19.4%.

On to `O=C(CN1C(=O)C2CCCCC2C1=O)Nc1cc([N+](=O)[O-])ccc1F` (stereo not drawn), for which the cell number change was -16.7%. Moreover, the concentration at half-maximal activity (AC50) under setting [2] is 146 nM [falling, full curve, poor fit]. In addition, under setting [1], the AC50 was 146 nM [falling, full curve, poor fit].

Turning to `Cc1cc(C(=O)N/N=C/c2ccc([N+](=O)[O-])s2)c2ccccc2n1`, the cell number change was -1.28%. Further, under setting [2], the concentration at half-maximal activity (AC50) was 4.61 nM [rising, full curve, poor fit].
